PubChem BioAssay AID1508597 | Cure First, 2020

Test: 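Knock-downs altering ovarian cancer cell survival with or without PARP inhibitor rucaparib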 (primary screen)
Cells: human ovarian carcinoma lines grown from tumours: OCI-P5x (papillary serous) and OCI-C5x (clear cell)
Knock-down reagent: siRNA pool against human genes, 1.25 pmol siRNA per well
Duration: 72 h or 96 h, depending on the cell culture
Treatment: rucaparib 20 µM (about IC30) or vehicle, present until read-out
Measurement: 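Luminescent ATP-based viability assay read 72 or 96 h after transfection, depending on culture, given as normalised percent viability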
Reading the numbers: viability, normalised: higher = more viable cells remaining
Hit rule: 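a well counts as a hit if its normalised viability is under 80 percent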
Calls: active = viability under 80%; inactive = viability 80% or more
Shown is one part, drawn at random, of about 2,100 reagents tested. 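Calls flag viability under 80% in either arm, not effects specific to rucaparib; the reference for percent is not stated.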 Unmarked entries are inactive. The record does not give: the 100% reference.

| target gene | rucaparib or vehicle | cell line | technical replicate | viability, normalised (%) |
| --- | --- | --- | --- | --- |
| RIPK4 | Rucaparib | OCI-C5x (clear cell) | 1 | 62.3 (active) |
| RIPK4 | Rucaparib | OCI-C5x (clear cell) | 2 | 65.3 (active) |
| RIPK4 | Rucaparib | OCI-C5x (clear cell) | 3 | 71.3 (active) |
| RIPK4 | Rucaparib | OCI-P5x (serous) | 1 | 84.4 |
| RIPK4 | Rucaparib | OCI-P5x (serous) | 2 | 89.8 |
| RIPK4 | Rucaparib | OCI-P5x (serous) | 3 | 74 (active) |
| RIPK4 | Vehicle | OCI-C5x (clear cell) | 1 | 45.8 (active) |
| RIPK4 | Vehicle | OCI-C5x (clear cell) | 2 | 47.5 (active) |
| RIPK4 | Vehicle | OCI-C5x (clear cell) | 3 | 44.3 (active) |
| RIPK4 | Vehicle | OCI-P5x (serous) | 1 | 90.8 |
| RIPK4 | Vehicle | OCI-P5x (serous) | 2 | 73.7 (active) |
| RIPK4 | Vehicle | OCI-P5x (serous) | 3 | 83.2 |

Next part; the last 2 above are carried over.
| target gene | rucaparib or vehicle | cell line | technical replicate | viability, normalised (%) |
| --- | --- | --- | --- | --- |
| RIPK4 | Vehicle | OCI-P5x (serous) | 2 | 73.7 (active) |
| RIPK4 | Vehicle | OCI-P5x (serous) | 3 | 83.2 |
| CKMT1B | Rucaparib | OCI-C5x (clear cell) | 1 | 39.6 (active) |
| CKMT1B | Rucaparib | OCI-C5x (clear cell) | 2 | 53.5 (active) |
| CKMT1B | Rucaparib | OCI-C5x (clear cell) | 3 | 53.8 (active) |
| CKMT1B | Rucaparib | OCI-P5x (serous) | 1 | 85.8 |
| CKMT1B | Rucaparib | OCI-P5x (serous) | 2 | 77 (active) |
| CKMT1B | Rucaparib | OCI-P5x (serous) | 3 | 95.9 |
| CKMT1B | Vehicle | OCI-C5x (clear cell) | 1 | 49.3 (active) |
| CKMT1B | Vehicle | OCI-C5x (clear cell) | 2 | 39.3 (active) |
| CKMT1B | Vehicle | OCI-C5x (clear cell) | 3 | 46.8 (active) |
| CKMT1B | Vehicle | OCI-P5x (serous) | 1 | 89.9 |
| CKMT1B | Vehicle | OCI-P5x (serous) | 2 | 82.9 |
| CKMT1B | Vehicle | OCI-P5x (serous) | 3 | 92.9 |
